From PMC9765618
No constants are given. Whether binding was seen depends on the method and setting. In cells and extracts the contact can be indirect. Some binding calls cover weakened binding; strength is not graded here.

Sequences of proteins named here, by UniProt entry; tags and fusion partners are left off. A change or cut given only in a name is not applied to a line headed by its entry. A line that says so, or that is headed by a name, gives the form on record, which may keep a tag or linker.
Flag-tagged human Sp100A (P23497, form named): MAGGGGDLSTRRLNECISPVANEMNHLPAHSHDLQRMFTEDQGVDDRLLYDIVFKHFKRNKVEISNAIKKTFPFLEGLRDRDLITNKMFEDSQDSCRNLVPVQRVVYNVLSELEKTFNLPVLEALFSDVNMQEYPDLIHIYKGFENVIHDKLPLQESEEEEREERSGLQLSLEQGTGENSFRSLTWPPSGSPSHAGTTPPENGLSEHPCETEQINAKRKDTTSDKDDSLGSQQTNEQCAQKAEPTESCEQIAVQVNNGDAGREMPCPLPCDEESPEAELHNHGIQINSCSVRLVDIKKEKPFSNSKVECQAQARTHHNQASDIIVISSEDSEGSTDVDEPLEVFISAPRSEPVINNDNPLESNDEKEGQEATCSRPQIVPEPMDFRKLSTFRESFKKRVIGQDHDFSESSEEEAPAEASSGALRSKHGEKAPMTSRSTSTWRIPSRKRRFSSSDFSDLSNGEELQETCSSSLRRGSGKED
UniProt P14618: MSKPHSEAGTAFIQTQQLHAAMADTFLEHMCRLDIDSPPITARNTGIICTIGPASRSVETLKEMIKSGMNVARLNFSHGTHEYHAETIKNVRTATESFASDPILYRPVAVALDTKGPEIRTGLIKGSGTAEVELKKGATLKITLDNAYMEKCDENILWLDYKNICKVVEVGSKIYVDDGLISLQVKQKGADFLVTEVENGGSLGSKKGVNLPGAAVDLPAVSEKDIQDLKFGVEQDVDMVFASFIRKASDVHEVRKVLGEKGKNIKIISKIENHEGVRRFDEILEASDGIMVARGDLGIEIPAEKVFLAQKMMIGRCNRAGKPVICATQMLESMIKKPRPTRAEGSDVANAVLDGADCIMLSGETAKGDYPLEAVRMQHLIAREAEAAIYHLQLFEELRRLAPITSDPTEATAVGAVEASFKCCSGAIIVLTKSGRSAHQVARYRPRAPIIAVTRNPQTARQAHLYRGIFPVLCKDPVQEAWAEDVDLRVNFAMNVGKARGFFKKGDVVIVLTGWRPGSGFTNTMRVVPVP

Target: Flag-tagged human Sp100A (human) (UniProt P23497)
Test: co-IP; Flag-Sp100A and HA-PKM2 cotransfected into HEp-2 cells; nuclear and cytosolic proteins immunoprecipitated with anti-Flag antibody, blotted with anti-HA and anti-Flag

binding: binds
Substance: HA-tagged human PKM2 (from UniProt P14618 1-531) (enzyme)
